These are yes or no findings as the source states them, for the method shown. In cells and extracts the contact can be indirect. These calls come from enrichment with a bait or labelling near it, and not all partners need be listed. Tags and fused reporters may be left off the sequences shown.
T1: PCDH19-HA-FLAG (Protocadherin 19, endogenous in Pcdh19-HA-FLAG mice) (mouse (endogenous in mouse brain)) (UniProt Q80TF3)
T1 sequence: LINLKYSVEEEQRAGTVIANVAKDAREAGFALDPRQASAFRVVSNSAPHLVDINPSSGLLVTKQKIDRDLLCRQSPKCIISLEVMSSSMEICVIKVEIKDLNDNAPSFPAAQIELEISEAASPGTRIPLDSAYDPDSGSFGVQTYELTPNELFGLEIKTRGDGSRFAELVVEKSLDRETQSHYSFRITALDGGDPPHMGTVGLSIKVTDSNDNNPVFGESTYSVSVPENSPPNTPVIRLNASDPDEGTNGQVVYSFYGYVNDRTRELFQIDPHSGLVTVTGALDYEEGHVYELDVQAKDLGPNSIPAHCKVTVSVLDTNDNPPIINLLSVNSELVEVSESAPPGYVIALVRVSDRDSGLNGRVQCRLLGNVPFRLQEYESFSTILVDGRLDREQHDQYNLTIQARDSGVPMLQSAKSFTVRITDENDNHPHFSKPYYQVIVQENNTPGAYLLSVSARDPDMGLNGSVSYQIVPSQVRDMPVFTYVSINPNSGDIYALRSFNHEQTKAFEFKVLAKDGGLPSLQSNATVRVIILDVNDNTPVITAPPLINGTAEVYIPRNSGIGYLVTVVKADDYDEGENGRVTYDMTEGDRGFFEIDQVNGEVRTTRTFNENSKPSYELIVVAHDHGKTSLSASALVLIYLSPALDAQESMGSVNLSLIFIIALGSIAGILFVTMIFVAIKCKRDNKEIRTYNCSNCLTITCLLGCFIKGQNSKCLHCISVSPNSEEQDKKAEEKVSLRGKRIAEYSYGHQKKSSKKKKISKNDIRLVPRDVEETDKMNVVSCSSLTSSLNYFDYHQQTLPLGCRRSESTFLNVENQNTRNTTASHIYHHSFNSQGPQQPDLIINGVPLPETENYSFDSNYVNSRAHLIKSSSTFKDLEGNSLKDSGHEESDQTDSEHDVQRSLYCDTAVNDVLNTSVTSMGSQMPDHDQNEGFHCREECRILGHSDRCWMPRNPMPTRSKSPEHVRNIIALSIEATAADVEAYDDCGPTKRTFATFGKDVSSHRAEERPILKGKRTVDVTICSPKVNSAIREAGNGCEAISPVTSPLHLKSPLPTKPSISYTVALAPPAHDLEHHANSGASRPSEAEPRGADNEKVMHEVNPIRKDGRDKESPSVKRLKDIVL

B1: Catenin Alpha 2 (mouse, endogenous) (protein, UniProt Q61301 1-953)
chain: MTSATSPIILKWDPKSLEIRTLTVERLLEPLVTQVTTLVNTSNKGPSGKKKGRSKKAHVLAASVEQATQNFLEKGEQIAKESQDLKEELVAAVEDVRKQGETMRIASSEFADDPCSSVKRGTMVRAARALLSAVTRLLILADMADVMRLLSHLKIVEEALEAVKNATNEQDLANRFKEFGKEMVKLNYVAARRQQELKDPHCRDEMAAARGALKKNATMLYTASQAFLRHPDVAATRANRDYVFKQVQEAIAGISSAAQATSPTDEAKGHTGIGELAAALNEFDNKIILDPMTFSEARFRPSLEERLESIISGAALMADSSCTRDDRRERIVAECNAVRQALQDLLSEYMNNTGRKEKGDPLNIAIDKMTKKTRDLRRQLRKAVMDHISDSFLETNVPLLVLIEAAKSGNEKEVKEYAQVFREHANKLVEVANLACSISNNEEGVKLVRMAATQIDSLCPQVINAALTLAARPQSKVAQDNMDVFKDQWEKQVRVLTEAVDDITSVDDFLSVSENHILEDVNKCVIALQEGDVDTLDRTAGAIRGRAARVIHIINAEMENYEAGVYTEKVLEATKLLSETVMPRFAEQVEVAIEALSANVPQPFEENEFIDASRLVYDGVRDIRKAVLMIRTPEELEDDSDFEQEDYDVRSRTSVQTEDDQLIAGQSARAIMAQLPQEEKAKIAEQVEIFHQEKSKLDAEVAKWDDSGNDIIVLAKQMCMIMMEMTDFTRGKGPLKNTSDVINAAKKIAEAGSRMDKLARAVADQCPDSACKQDLLAYLQRIALYCHQLNICSKVKAEVQNLGGELIVSGTGVQSTFTTFYEVDCDVIDGGRASQLSTHLPTCAEGAPIGSGSSDSSMLDSATSLIQAAKNLMNAVVLTVKASYVASTKYQKVYGTAAVNSPVVSWKMKAPEKKPLVKREKPEEFQTRVRRGSQKKHISPVQALSEFKAMDSF
B2: Catenin Delta 2 (protein, UniProt O35927 1-1247)
chain: MFARKQSGAAPFGAMPVPDQPPSASEKNSSLSPGLNTSNGDGSETETTSAILASVKEQELQFERLTRELEAERQIVASQLERCKLGSETGSMSSISSAGEQFHWQTQDGQKDIEDELTTGLELVDSCIRSLQESGILDPQDYSTSERPSLLSQSALQLNSKPEGSFQYPASYHSNQTLALGDTAPSQLPARSTQARAAGQSFSQGTTGRAGHLAGSEPAPPPPPPREPFAPSLGSAFHLPDAPPAAAALYYSSSTLPAPPRGGSPLTTTQGGSPTKLQRGGSAPEGAAYAAPRGSSPKQSPSRLAKSYSTSSPINIVVSSAGLSPIRVTSPPTVQSTISSSPIHQLSSTIGTYATLSPTKRLVHASEQYSKHSQELYATATLQRPGSLAAGSRASYSSQHGHLAPELRALQSPEHHIDPIYEDRVYQKPPMRSLSQSQGDPLPPAHTGTFRTSTAPSSPGVDSVPLQRTGSQHGPQNAAAATFQRASYAAGPASNYADPYRQLQYCASVDSPYSKSGPALPPEGTLARSPSIDSIQKDPREFGWRDPELPEVIQMLQHQFPSVQSNAAAYLQHLCFGDNKIKAEIRRQGGIQLLVDLLDHRMTEVHRSACGALRNLVYGKANDDNKIALKNCGGIPALVRLLRKTTDLEIRELVTGVLWNLSSCDALKMPIIQDALAVLTNAVIIPHSGWENSPLQDDRKIQLHSSQVLRNATGCLRNVSSAGEEARRRMRECDGLTDALLYVIQSALGSSEIDSKTVENCVCILRNLSYRLAAETSQGQHMGTDELDGLLCGETNGKDTESSGCWGKKKKKKKSQDQWDGVGPLPDCAEPPKGIQMLWHPSIVKPYLTLLSECSNPDTLEGAAGALQNLAAGSWKGWAEDVAGMAYALRSLPEGAPCLPQWSVYIRAAVRKEKGLPILVELLRIDNDRVVCAVATALRNMALDVRNKELIGKYAMRDLVHRLPGGNNSNNSGSKAMSDDTVTAVCCTLHEVITKNMENAKALRDAGGIEKLVGISKSKGDKHSPKVVKAASQVLNSMWQYRDLRSLYKKDGWSQYHFVASSSTIERDRQRPYSSSRTPSISPVRVSPNNRSASAPASPREMISLKERKTDYESAGNNATYHGTKGEHTSRKDTMTAQNTGVSTLYRNSYGAPAEDIKQNQVSTQPVPQEPSRKDYETYQPFPNSTRNYDESFFEDQVHHRPPASEYTMHLGLKSTGNYVDFYSAARPYSELNYETSHYPASPDSWV
B3: Histone deacetylase 6 (protein, UniProt Q9Z2V5 1-1149)
chain: MTSTGQDSSTRQRKSRHNPQSPLQESSATLKRGGKKCAVPHSSPNLAEVKKKGKMKKLSQPAEEDLVVGLQGLDLNPETRVPVGTGLVFDEQLNDFHCLWDDSFPESPERLHAIREQLILEGLLGRCVSFQARFAEKEELMLVHSLEYIDLMETTQYMNEGELRVLAETYDSVYLHPNSYSCACLATGSVLRLVDALMGAEIRNGMAVIRPPGHHAQHNLMDGYCMFNHLAVAARYAQKKHRIQRVLIVDWDVHHGQGTQFIFDQDPSVLYFSIHRYEHGRFWPHLKASNWSTIGFGQGQGYTINVPWNQTGMRDADYIAAFLHILLPVASEFQPQLVLVAAGFDALHGDPKGEMAATPAGFAHLTHLLMGLAGGKLILSLEGGYNLRALAKGVSASLHTLLGDPCPMLESCVVPCASAQTSIYCTLEALEPFWEVLERSVETQEEDEVEEAVLEEEEEEGGWEATALPMDTWPLLQNRTGLVYDEKMMSHCNLWDNHHPETPQRILRIMCHLEEVGLAARCLILPARPALDSELLTCHSAEYVEHLRTTEKMKTRDLHREGANFDSIYICPSTFACAKLATGAACRLVEAVLSGEVLNGIAVVRPPGHHAEPNAACGFCFFNSVAVAARHAQIIAGRALRILIVDWDVHHGNGTQHIFEDDPSVLYVSLHRYDRGTFFPMGDEGASSQVGRDAGIGFTVNVPWNGPRMGDADYLAAWHRLVLPIAYEFNPELVLISAGFDAAQGDPLGGCQVTPEGYAHLTHLLMGLAGGRIILILEGGYNLASISESMAACTHSLLGDPPPQLTLLRPPQSGALVSISEVIQVHRKYWRSLRLMKMEDKEECSSSRLVIKKLPPTASPVSAKEMTTPKGKVPEESVRKTIAALPGKESTLGQAKSKMAKAVLAQGQSSEQAAKGTTLDLATSKETVGGATTDLWASAAAPENFPNQTTSVEALGETEPTPPASHTNKQTTGASPLQGVTAQQSLQLGVLSTLELSREAEEAHDSEEGLLGEAAGGQDMNSLMLTQGFGDFNTQDVFYAVTPLSWCPHLMAVCPIPAAGLDVSQPCKTCGTVQENWVCLTCYQVYCSRYVNAHMVCHHEASEHPLVLSCVDLSTWCYVCQAYVHHEDLQDVKNAAHQNKFGEDMPHSH
B4: Actin Binding LIM Protein 1 (protein, UniProt Q8K4G5 1-861)
chain: MPSLLGLKCLGKLCSSEIGKVPSPERASLRNSHRRLLIEDLSVPETPDPAHRRRGTVIHLVYLYSAGCGPPELRFSSYDPSVAHPQDPHHSSEKPVIHCHKCGEPCKGEVLRVQTKHFHIKCFTCKVCGCDLAQGGFFIKNGDYLCTLDYQRMYGTRCHGCGEFVEGEVVTALGKTYHPNCFACTICKRPFPPGDRVTFNGRDCLCQLCAQPMSSSPKEASCSSNCAGCGRDIKNGQALLALDKQWHLGCFKCKSCGKVLTGEYISKDGSPYCEKDYQGLFGVKCEACHQFITGKVLEAGDKHYHPSCARCSRCNQMFTEGEEMYLQGSTVWHPDCKQSTKTEEKLRPPNIPRSSSDFFYPKSLIRRTGRSPALQLLSPPCLTNSNKNPRQPTRTSSESIYSRPGSSIPGSPGHTIYAKVDNEILDYKDLAAIPKVKAIYDIERPDLITYEPFYTSGYEDKQERQSLGESPRTLSPTPSAEGYQDVRDRMIHRSTSQGSINSPVYSRHSYTPTTSRSPQHFHRPELLSPGVHRWSPLRTSSFSSTHSDSRPNPPFRHHFLPHVKGNEPSSGRNSPLPYRPDSRPLTPTYAQAPKHFHVPDQGINIYRKPPIYKQHAALAAQSKASEDIIKFSKFPAAQAPDPNEIPKIETDHWPGPPSLAAVGTDPRRRSSGREEDEEELLRRRQLQEEQLMKLNSGLGQLILKEEMEKESRERASLASRYDSPLHSASHAPSSKTSSLPGYGKNGLHRPVSTDFAQYNSYGDISGGVRDYQTLPDGHMPAVRMDRGVSMPNMLEPKIFPYEMLMVTNRGRNKILRDVDRTRLERHLAPEVFWEIFGMSIQEFDKLPLWRRNDMKKKAKLF

biological target: T1, PCDH19-HA-FLAG (Protocadherin 19, endogenous in Pcdh19-HA-FLAG mice) (mouse (endogenous in mouse brain)); experiment: affinity purification with mass spectrometry; Experiment 2, postnatal: PCDH19-HA-FLAG precipitated with anti-FLAG M2 affinity gel from P6-7 mouse cortex and hippocampus lysate, control mouse IgG affinity gel; IP Buffer, overnight 4 °C; LC-MS/MS

binding, binds:
B1
B2
B3
B4

— article PMC11408250
